Some entries share one result that the patent states for a list of compounds.
Columns and labels:
Assay type in all cases: in vivo
Myzus persicae = assay: Activity against Myzus persicae; conditions: 400 ppm spray, pea seedlings, 20° C., 3 and 6 days later
[1] = system: Frankliniella occidentalis; assay: Activity against Frankliniella occidentalis; conditions: 10 g/hl spray, three times at 10-day intervals, bell pepper plants in the greenhouse
Aphis craccivora = assay: Activity against Aphis craccivora; conditions: 400 ppm spray, pea seedlings, 20° C., 3 and 6 days later
Nilaparvata lugens = assay: Activity against Nilaparvata lugens; conditions: 400 ppm spray, rice plants, 2nd and 3rd instar larvae, 21 days later
Tetranychus urticae = assay: Activity against Tetranychus urticae; conditions: 400 ppm spray, bean plants, mixed population, 6 days at 25° C.
[2] = system: Panonychus ulmi (OP- and Carb.-resistant); assay: Activity against Panonychus ulmi (OP- and Carb.-resistant); conditions: 400 ppm spray, apple seedlings, adult females, after 14 days
[3] = system: Plutella xylostella caterpillars; assay: Activity against Plutella xylostella caterpillars; conditions: 400 ppm spray, cabbage plants, third instar caterpillars, 3 days later
Heliothis virescens eggs = assay: Ovicidal action on Heliothis virescens; conditions: 400 ppm active ingredient, eggs on filter paper immersed, after 6 days
[4] = system: Diabrotica balteata larvae; assay: Activity against Diabrotica balteata larvae; conditions: 400 ppm spray, maize seedlings, second instar larvae, 6 days later
[5] = system: Heliothis virescens caterpillars; assay: Activity against Heliothis virescens caterpillars; conditions: 400 ppm spray, soya plants, first instar caterpillars, 6 days later
[6] = system: Spodoptera littoralis caterpillars; assay: Action against Spodoptera littoralis caterpillars; conditions: 400 ppm spray, soya plants, third instar caterpillars, three days later

CN(N=C(C#N)c1ccc([N+](=O)[O-])cc1)c1c(Cl)cc(C(F)(F)F)cc1Cl [Compound 3.77]
over 80%: activity (percentage reduction in population) (Myzus persicae) | activity (reduction in the number of nymphs) [1] | activity (percentage reduction in population) (Aphis craccivora) | activity (percentage reduction in population) (Nilaparvata lugens) | activity (percentage reduction in population) (Tetranychus urticae) | activity (percentage reduction in population) [2]

N#CC(=NNc1c(Cl)cc(C(F)(F)F)cc1Cl)c1ccc(C(F)(F)F)cc1 [Compound 3.3]
over 80%: activity (percentage reduction in population) (Tetranychus urticae)

CCOC(=O)N(C)CN(N=C(C#N)c1ccc(C#N)cc1)c1c(Cl)cc(C(F)(F)F)cc1Cl [Compound 3.80]
over 80%: activity (reduction in the number of nymphs) [1] | activity (percentage reduction in population) (Nilaparvata lugens) | activity (percentage reduction in population) (Tetranychus urticae) | activity (percentage reduction in population) [2]

N#CC(=NN(C(=O)C1CC1)c1c(Cl)cc(C(F)(F)F)cc1Cl)c1ccc(C#N)cc1 [Compound 3.48]
over 80%: activity (reduction in the number of nymphs) [1] | activity (percentage reduction in population or in feeding damage) [3] | activity (% reduction in hatching) (Heliothis virescens eggs) | activity (percentage reduction in population) [4]

CC(=O)N(N=C(C#N)c1ccc(C#N)cc1)c1c(Cl)cc(C(F)(F)F)cc1Cl [Compound 3.32]
over 80%: activity (percentage reduction in population or in feeding damage) [5]

N#CC(=NNc1c(Cl)cc(C(F)(F)F)cc1Cl)c1ccc([N+](=O)[O-])cc1[N+](=O)[O-] [Compound 3.103]
over 80%: activity (percentage reduction in population or in feeding damage) [3]

N#CC(=NNc1c(Cl)cc(Cl)cc1Cl)c1ccc(C#N)cc1 [Compound 3.43]
over 80%: activity (percentage reduction in population or in feeding damage) [6] | activity (percentage reduction in population or in feeding damage) [3] | activity (% reduction in hatching) (Heliothis virescens eggs) | activity (percentage reduction in population) [4]

N#CC(=NN(C(=O)c1ccc(Cl)cc1)c1c(Cl)cc(C(F)(F)F)cc1Cl)c1ccc(C#N)cc1 [Compound 3.49]
over 80%: activity (percentage reduction in population or in feeding damage) [3] | activity (percentage reduction in population) [4]

CN(/N=C(\C#N)c1ccc(C#N)cc1)c1c(Cl)cc(C(F)(F)F)cc1Cl [Compound 3.29, 4-{1-[(2,6-dichloro-4-trifluoromethylphenyl)methylhydrazono]-2-nitriloethyl}-benzonitrile]
over 80%: activity (percentage reduction in population) (Tetranychus urticae) | activity (percentage reduction in population or in feeding damage) [5]

N#CC(=NN(C(=O)CCCC=C(F)F)c1c(Cl)cc(C(F)(F)F)cc1Cl)c1ccc(C#N)cc1 [Compound 3.54]
over 80%: activity (percentage reduction in population or in feeding damage) [6] | activity (percentage reduction in population or in feeding damage) [3] | activity (% reduction in hatching) (Heliothis virescens eggs) | activity (percentage reduction in population or in feeding damage) [5]

N#CC(=NNc1ccc(C(F)(F)F)cc1Cl)c1cc(C(F)(F)F)cc(C(F)(F)F)c1 [Compound 3.20]
over 80%: activity (percentage reduction in population or in feeding damage) [6] | activity (reduction in the number of nymphs) [1] | activity (percentage reduction in population or in feeding damage) [3] | activity (% reduction in hatching) (Heliothis virescens eggs) | activity (percentage reduction in population) (Nilaparvata lugens) | activity (percentage reduction in population) (Tetranychus urticae) | activity (percentage reduction in population) [4] | activity (percentage reduction in population or in feeding damage) [5]

N#CC(=NNc1ccc(C(F)(F)F)cc1Cl)c1ccc([N+](=O)[O-])cc1 [Compound 3.2]
over 80%: activity (reduction in the number of nymphs) [1]

CCOC(=O)N(N=C(C#N)c1ccc([N+](=O)[O-])cc1)c1c(Cl)cc(C(F)(F)F)cc1Cl [Compound 3.90]
over 80%: activity (percentage reduction in population) (Myzus persicae) | activity (reduction in the number of nymphs) [1] | activity (percentage reduction in population) (Aphis craccivora)

C#CCN(N=C(C#N)c1ccc(C#N)cc1)c1c(Cl)cc(C(F)(F)F)cc1Cl [Compound 3.78]
over 80%: activity (percentage reduction in population) (Tetranychus urticae) | activity (percentage reduction in population) [2]

CC(=O)N(N=C(C#N)c1ccc([N+](=O)[O-])cc1)c1c(Cl)cc(C(F)(F)F)cc1Cl [Compound 3.98]
over 80%: activity (percentage reduction in population) (Myzus persicae) | activity (percentage reduction in population) (Aphis craccivora) | activity (percentage reduction in population) (Nilaparvata lugens) | activity (percentage reduction in population) (Tetranychus urticae)

COC(=O)N(N=C(C#N)c1ccc(C#N)cc1)c1c(Cl)cc(C(F)(F)F)cc1Cl [Compound 3.84]
over 80%: activity (reduction in the number of nymphs) [1]

CCCCCCCCOC(=O)N(N=C(C#N)c1ccc(C#N)cc1)c1c(Cl)cc(C(F)(F)F)cc1Cl [Compound 3.89]
over 80%: activity (reduction in the number of nymphs) [1]

N#CC(=NNc1c(Cl)cc(C(F)(F)F)cc1Cl)c1cc(C(F)(F)F)cc(C(F)(F)F)c1 [Compound 3.18]
over 80%: activity (percentage reduction in population or in feeding damage) [6] | activity (reduction in the number of nymphs) [1] | activity (percentage reduction in population or in feeding damage) [3] | activity (% reduction in hatching) (Heliothis virescens eggs) | activity (percentage reduction in population) (Nilaparvata lugens) | activity (percentage reduction in population) (Tetranychus urticae) | activity (percentage reduction in population or in feeding damage) [5]

N#CC(=NNc1ccccc1[N+](=O)[O-])c1ccc([N+](=O)[O-])cc1 [Compound 3.10]
over 80%: activity (percentage reduction in population or in feeding damage) [6] | activity (percentage reduction in population) [4]

From patent US6417386B2, “Cyanohydrazone derivatives” (Syngenta Crop Protection, Inc., priority 1996, dated 2002)
